Some peptides are written in HELM: one residue between dots, names in brackets for other building blocks, links after the first $.
Test: general procedure: Boc solid-phase peptide synthesis; MBHA resin (0.76 mM/g); DIC
Conditions: whole synthesis, capillary zone electrophoresis (CZE) and RP-HPLC, scale of the general procedure about 3 grams of MBHA resin

Row | Substance | final purity (method not given) | final HPLC purity
1 | Ac-D-2Nal-D-4Cpa-D-3Pal-D/L-(methyl,formyl)aminoGly-Aph(Ac)-D-Aph(Ac)-Leu- Lys(isopropyl)-Pro-D-Ala-NH2 | greater than 90% | –
2 | Ac-D-2Nal-D-4Cpa-D-3Pal-D/L-Agl(HO-Ac)Aph(Ac)-D-Aph(Ac)-Leu-Lys(isopropyl)-Pro-D-Ala-NH2 | greater than 90% | –
3 | Ac-D-2Nal-D-4Cpa-D-3Pal-D/L-Agl(formyl)-Aph(Ac)-D-Aph(Ac)-Leu-Lys(isopropyl)-Pro-D-Ala-NH2 | greater than 90% | –
4 | Ac-D/L-Agl(methyl,2-naphthoyl)-D-4Cpa-D-3Pal-Ser-Aph(acetyl)-D-Aph(acetyl)-Leu-Lys(isopropyl)-Pro-D-Ala-NH2 | greater than 90% | –
5 | Ac-β-D-2Nal-D-4Cpa-γ-(4-pyridyl)D/L-amidoGly-Ser-Aph(acetyl)-D- Aph(acetyl)-Leu-Lys(isopropyl)-Pro-D-Ala-NH2 | greater than 80% | –
6 | Ac-β-D-2Nal-D-Cpa-γ-(3-pyridyl)methylD/L-amidoGly-Ser-Aph(acetyl)-D-Aph(acetyl)-Leu-Lys(isopropyl)-Pro-D-Ala-NH2 | greater than 80% | –
7 | Ac-γ-(2-naphthoyl)amidoGly-4Cl-D-Phe-D-3Pal-Ser-Aph(atz)-D-Aph(atz)- Leu-Lys(isopropyl)-Pro-D-Ala-NH2 | greater than 90% | –
8 | PEPTIDE1{[ac].[D-2Nal].[D-4Cpa].[Agl(nicotinoyl)].S.[Aph(Ac)].[D-Aph(Ac)].L.[ILys].P.[dA].[am]}$$$$V2.0 | – | about 97%-98%

Reference: US5807983A (The Salk Institute for Biological Studies, priority 1996, dated 1998)
